# Measurements: publication PMC11676817, “Antiproliferative and Morphological Analysis Triggered by Drugs Contained in the Medicines for Malaria Venture COVID-Box Against Toxoplasma gondii Tachyzoites” (Microorganisms, 2024)
# Test system: Toxoplasma gondii tachyzoites of the RH strain
# Experiment: microbe, parasite or virus in culture
# Details: 168 h, read-out: Inhibition of tachyzoite proliferation
smiles,measurement,value
"CCCCc1oc2ccccc2c1C(=O)c1cc(I)c(OCCN(CC)CC)c(I)c1 [amiodarone, Amiodarone]",inhibition at 1 µM,≥ 70%
